Reference: article doi:10.1101/2020.06.06.138156 (bioRxiv, 2020)
These are yes or no findings as the source states them, for the method shown. Binding seen in cells or lysates may run through a third protein. A yes stands for co-enrichment or nearness to the bait. Other partners may have been found. For some of these results: No binding means not detected with the bait. For some of these results: Tags and fused reporters may be left off the sequences shown.

What was measured:
Experiment in all cases: affinity purification with mass spectrometry
[1] = biological target: T1, Halo-tagged SETD2 fragment 1964-2263 (human) (UniProt Q9BYW2)
T1 sequence: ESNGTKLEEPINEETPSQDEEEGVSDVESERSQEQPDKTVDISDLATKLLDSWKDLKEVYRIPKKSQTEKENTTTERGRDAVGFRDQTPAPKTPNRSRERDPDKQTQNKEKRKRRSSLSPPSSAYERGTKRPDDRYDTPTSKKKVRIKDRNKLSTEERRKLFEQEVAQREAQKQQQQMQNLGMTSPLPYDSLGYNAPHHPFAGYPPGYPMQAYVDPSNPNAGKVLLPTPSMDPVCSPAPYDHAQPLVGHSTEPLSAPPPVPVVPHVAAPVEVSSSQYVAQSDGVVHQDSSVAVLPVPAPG

[2] = biological target: T2, Halo-tagged SETD2 fragment 2164-2213 (human) (UniProt Q9BYW2)
T2 sequence: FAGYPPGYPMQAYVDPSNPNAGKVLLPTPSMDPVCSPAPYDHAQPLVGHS

Halo-ySet2 (yeast) = biological target: T3, Halo-ySet2 (yeast) (UniProt P46995)
T3 sequence: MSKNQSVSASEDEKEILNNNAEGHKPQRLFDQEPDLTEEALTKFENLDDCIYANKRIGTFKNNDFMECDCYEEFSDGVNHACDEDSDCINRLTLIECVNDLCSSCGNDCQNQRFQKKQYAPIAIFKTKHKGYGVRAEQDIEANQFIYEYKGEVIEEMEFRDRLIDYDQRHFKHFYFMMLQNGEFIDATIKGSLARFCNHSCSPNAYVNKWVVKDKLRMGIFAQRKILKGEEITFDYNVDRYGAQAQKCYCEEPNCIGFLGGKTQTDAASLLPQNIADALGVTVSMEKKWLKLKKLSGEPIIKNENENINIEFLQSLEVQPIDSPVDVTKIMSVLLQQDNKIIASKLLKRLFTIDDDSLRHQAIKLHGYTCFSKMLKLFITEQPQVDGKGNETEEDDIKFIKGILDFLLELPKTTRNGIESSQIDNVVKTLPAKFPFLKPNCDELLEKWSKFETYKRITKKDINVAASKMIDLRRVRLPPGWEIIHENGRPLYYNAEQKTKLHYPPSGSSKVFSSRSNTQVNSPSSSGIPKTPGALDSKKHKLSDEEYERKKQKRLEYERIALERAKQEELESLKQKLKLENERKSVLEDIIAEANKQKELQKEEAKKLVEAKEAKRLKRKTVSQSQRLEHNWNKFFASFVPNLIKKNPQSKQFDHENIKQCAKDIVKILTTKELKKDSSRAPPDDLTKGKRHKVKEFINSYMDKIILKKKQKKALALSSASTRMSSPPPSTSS

[3] = biological target: T4, Halo-tagged SETD2 fragment 1964-2113 (human) (UniProt Q9BYW2)
T4 sequence: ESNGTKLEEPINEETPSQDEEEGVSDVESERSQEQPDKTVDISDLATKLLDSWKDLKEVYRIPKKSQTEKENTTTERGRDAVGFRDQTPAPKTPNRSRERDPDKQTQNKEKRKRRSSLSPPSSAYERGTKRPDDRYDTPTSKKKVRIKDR

[4] = biological target: T5, Halo-SETD2CΔ2114-2263 (human) (UniProt Q9BYW2)
T5 sequence: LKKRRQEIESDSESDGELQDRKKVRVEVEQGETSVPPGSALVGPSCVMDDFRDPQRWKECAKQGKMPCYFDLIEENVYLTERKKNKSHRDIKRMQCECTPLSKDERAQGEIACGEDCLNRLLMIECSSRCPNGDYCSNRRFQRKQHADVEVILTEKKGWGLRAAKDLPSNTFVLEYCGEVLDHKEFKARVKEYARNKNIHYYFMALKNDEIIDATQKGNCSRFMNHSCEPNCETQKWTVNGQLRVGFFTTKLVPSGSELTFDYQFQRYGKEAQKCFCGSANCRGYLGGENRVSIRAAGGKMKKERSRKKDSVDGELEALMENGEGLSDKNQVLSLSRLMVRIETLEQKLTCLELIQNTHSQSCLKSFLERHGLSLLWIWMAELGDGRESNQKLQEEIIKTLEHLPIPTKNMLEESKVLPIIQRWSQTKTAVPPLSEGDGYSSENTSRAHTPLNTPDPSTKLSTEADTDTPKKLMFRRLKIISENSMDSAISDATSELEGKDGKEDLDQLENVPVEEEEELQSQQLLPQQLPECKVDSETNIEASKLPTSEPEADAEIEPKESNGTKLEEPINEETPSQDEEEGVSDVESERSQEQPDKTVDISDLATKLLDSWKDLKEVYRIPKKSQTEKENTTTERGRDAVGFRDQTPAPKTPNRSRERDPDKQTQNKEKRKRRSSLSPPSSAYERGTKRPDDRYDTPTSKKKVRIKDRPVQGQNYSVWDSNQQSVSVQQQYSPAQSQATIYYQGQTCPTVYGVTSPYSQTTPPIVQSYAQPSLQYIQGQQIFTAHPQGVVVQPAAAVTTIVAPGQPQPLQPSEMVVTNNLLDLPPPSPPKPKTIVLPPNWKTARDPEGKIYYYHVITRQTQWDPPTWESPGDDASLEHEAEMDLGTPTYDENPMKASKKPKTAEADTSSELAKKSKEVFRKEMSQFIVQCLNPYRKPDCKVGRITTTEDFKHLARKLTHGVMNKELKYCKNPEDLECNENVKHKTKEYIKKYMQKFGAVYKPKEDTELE

[5] = biological target: T6, Halo-tagged SETD2 SHI domain (2114-2263) (human) (UniProt Q9BYW2)
T6 sequence: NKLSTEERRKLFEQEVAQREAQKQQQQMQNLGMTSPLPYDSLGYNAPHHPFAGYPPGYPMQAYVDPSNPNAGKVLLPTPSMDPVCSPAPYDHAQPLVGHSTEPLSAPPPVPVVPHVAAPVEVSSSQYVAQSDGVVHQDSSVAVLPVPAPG

[6] = biological target: T7, Halo-SETD2C (1404-2564) (human) (UniProt Q9BYW2)
T7 sequence: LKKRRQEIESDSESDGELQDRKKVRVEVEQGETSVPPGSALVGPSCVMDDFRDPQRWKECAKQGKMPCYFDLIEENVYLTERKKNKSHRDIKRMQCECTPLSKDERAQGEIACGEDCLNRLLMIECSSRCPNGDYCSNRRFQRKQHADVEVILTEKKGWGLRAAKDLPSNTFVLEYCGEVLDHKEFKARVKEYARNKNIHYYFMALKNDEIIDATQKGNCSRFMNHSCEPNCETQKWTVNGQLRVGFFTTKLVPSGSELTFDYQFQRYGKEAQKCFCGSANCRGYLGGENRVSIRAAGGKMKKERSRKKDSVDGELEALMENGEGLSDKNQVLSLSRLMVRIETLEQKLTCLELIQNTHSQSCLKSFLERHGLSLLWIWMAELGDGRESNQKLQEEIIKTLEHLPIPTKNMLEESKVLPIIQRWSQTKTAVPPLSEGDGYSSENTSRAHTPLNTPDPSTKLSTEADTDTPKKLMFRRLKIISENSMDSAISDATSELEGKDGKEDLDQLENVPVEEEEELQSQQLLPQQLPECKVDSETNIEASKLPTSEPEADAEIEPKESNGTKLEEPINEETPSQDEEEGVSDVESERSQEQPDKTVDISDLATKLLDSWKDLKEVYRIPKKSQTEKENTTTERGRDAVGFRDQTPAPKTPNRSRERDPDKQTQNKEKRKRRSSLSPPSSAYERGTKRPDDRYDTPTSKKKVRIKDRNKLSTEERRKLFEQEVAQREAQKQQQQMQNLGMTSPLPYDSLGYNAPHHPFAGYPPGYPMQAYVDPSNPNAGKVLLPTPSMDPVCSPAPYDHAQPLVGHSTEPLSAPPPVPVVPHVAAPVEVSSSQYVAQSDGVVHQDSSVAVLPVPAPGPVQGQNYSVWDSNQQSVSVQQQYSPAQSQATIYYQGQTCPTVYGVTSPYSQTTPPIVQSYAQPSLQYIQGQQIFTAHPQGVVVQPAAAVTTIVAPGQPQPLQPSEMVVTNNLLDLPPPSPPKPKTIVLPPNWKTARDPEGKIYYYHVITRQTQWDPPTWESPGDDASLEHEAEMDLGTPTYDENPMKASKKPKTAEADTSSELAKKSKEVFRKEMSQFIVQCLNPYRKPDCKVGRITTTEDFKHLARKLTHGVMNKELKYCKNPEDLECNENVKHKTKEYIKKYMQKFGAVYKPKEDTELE

B1: hnRNP L (endogenous) (protein, UniProt P14866 1-589)
chain: MSRRLLPRAEKRRRRLEQRQQPDEQRRRSGAMVKMAAAGGGGGGGRYYGGGSEGGRAPKRLKTDNAGDQHGGGGGGGGGAGAAGGGGGGENYDDPHKTPASPVVHIRGLIDGVVEADLVEALQEFGPISYVVVMPKKRQALVEFEDVLGACNAVNYAADNQIYIAGHPAFVNYSTSQKISRPGDSDDSRSVNSVLLFTILNPIYSITTDVLYTICNPCGPVQRIVIFRKNGVQAMVEFDSVQSAQRAKASLNGADIYSGCCTLKIEYAKPTRLNVFKNDQDTWDYTNPNLSGQGDPGSNPNKRQRQPPLLGDHPAEYGGPHGGYHSHYHDEGYGPPPPHYEGRRMGPPVGGHRRGPSRYGPQYGHPPPPPPPPEYGPHADSPVLMVYGLDQSKMNCDRVFNVFCLYGNVEKVKFMKSKPGAAMVEMADGYAVDRAITHLNNNFMFGQKLNVCVSKQPAIMPGQSYGLEDGSCSYKDFSESRNNRFSTPEQAAKNRIQHPSNVLHFFNAPLEVTEENFFEICDELGVKRPSSVKVFSGKSERSSSGLLEWESKSDALETLGFLNHYQMKNPNGPYPYTLKLCFSTAQHAS
- binding [1]: binds
- binding [2]: binds
- binding (Halo-ySet2 (yeast)): no binding
- binding [3]: no binding
- binding [4]: no binding
- binding [5]: binds
- binding [6]: binds
